Results taken from publication PMC3926330.
Results are given in words; binding and its absence hold for the method and conditions named. In cells and extracts the contact can be indirect. Some binding calls cover weakened binding; strength is not graded here.

Protein sequences, listed by entry. Tags and fused reporters are not part of them.
UniProt P10275: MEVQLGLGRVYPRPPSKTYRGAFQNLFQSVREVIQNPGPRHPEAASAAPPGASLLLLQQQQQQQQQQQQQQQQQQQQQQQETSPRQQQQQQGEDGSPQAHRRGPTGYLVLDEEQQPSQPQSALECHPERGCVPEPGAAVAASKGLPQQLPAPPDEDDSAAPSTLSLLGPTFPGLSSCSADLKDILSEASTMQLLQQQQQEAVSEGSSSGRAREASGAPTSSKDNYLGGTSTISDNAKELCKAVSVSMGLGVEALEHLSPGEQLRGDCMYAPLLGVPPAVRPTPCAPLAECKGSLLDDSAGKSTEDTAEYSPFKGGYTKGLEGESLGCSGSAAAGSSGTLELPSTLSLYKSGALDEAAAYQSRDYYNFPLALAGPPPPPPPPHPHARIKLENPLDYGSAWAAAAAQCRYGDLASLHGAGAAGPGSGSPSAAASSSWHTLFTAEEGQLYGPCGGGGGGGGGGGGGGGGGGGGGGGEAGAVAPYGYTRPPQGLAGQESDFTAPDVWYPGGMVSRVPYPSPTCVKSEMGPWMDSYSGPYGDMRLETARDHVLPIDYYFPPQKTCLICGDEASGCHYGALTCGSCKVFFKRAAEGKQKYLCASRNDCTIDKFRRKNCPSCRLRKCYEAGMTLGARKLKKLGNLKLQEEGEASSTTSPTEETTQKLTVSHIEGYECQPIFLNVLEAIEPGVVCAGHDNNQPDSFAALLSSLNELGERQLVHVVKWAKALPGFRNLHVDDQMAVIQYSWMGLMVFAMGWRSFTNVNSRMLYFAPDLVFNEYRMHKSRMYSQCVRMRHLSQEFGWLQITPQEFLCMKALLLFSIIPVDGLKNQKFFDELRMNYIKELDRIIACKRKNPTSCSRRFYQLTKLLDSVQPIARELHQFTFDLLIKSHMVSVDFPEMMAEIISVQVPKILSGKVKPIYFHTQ

Columns and labels:
[1] = target: T1, forkhead box A1 (FOXA1) (human (endogenous in MFE-296 and AN3CA)) (UniProt P55317); test: co-IP; AN3CA cells treated with vehicle (no DHT); IP with anti-FOXA1 from 500 ug lysate, 4°C overnight, Protein A + G Agarose, washed with RIPA; western blot for AR and FOXA1
T1 sequence: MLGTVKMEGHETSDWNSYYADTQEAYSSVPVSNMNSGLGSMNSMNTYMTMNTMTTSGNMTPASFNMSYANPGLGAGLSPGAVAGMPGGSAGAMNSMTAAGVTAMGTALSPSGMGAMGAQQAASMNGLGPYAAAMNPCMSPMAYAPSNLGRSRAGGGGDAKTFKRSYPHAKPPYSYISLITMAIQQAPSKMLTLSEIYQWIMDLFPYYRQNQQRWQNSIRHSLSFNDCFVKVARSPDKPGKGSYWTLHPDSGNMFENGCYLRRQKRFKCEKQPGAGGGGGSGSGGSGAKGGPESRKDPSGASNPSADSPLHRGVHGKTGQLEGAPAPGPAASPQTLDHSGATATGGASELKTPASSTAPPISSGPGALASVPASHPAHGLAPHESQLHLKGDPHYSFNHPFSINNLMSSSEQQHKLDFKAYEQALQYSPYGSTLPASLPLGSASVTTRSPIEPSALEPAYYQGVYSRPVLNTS

[2] = target: T1, forkhead box A1 (FOXA1) (human (endogenous in MFE-296 and AN3CA)); test: co-IP; AN3CA cells treated with 10^-7 M DHT for 24 h; IP with anti-FOXA1 from 500 ug lysate, 4°C overnight, Protein A + G Agarose, washed with RIPA; western blot for AR and FOXA1
[3] = target: T1, forkhead box A1 (FOXA1) (human (endogenous in MFE-296 and AN3CA)); test: co-IP; nuclear lysates from MFE-296 cells; IP with rabbit anti-FOXA1 (Epitomics), 500 ug lysate, 4°C overnight, Protein A + G Agarose, washed with RIPA; western blot for AR and FOXA1; isotype IgG as control

Substance: androgen receptor (AR) (from UniProt P10275 1-920)
- binding [1]: no binding (condition: AN3CA cells without DHT (vehicle))
- binding [2]: binds
- binding [3]: binds
